# Among all 400,000 compounds or so, about 13,000 (3.2%) were called active. This list was built around the results that the source calls inconclusive (neither active nor inactive); the mix of calls is not that of the screen. Calls come from the whole dose curve; as a rule, active = well fitted cell-killing curve with a large enough effect; inconclusive = small, poorly fitted or top-dose-only effect, or effect the other way; inactive = flat fitted curve, though single readings scatter. A potency beside an inconclusive call is a rough fit, not a confirmed value.
# Assay: qHTS assay for MDR1-selective chemotherapeutics: Primary screen using the drug-selected MDR subline cells KB-V1; note: nearly all actives have a fitted effect of over 60% in size
# Settings: KB-V1 MDR cells viability, CellTiter-Glo, 72 h; activity change, negative = cytotoxicity: at 46.1 µM (top of the series)
# Procedure, shortened: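 Compound-treated KB-V1 multidrug-resistant cells, 72 h, 37 degrees C; viability by CellTiter-Glo. Fitted qHTS curves give the values.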
# % is set by controls: 0 for no effect and ±100 for the full control effect; potency is the fitted concentration of half-maximal effect.
Compound,"activity change, negative = cytotoxicity",Potency
CC1CN(C(=O)CCC(=O)N2CCC3(CC2)OCCO3)c2cc(Cl)ccc2O1 (stereo unspecified),inactive: -4.27%,
Cc1ccc(NC(=O)CN2C(=O)CN=C(c3ccccc3)c3ccccc32)c(C)c1,inactive: -10.9%,
O=C(NCC1=C(c2ccc3ccccc3c2)C[C@@H]2CC[C@H]1N2Cc1ccco1)c1cccs1,inactive: -8.15%,
CC(=O)OC1CCC2(C)C(=CC(=O)C3C2CCC2(C)C(OC(C)=O)CCC32)C1 (stereo unspecified),,"inconclusive: 23.1 µM [cytotoxic, partial curve, poor fit]"
Cc1cccc(-n2c(O)c(/C=C3/C(c4ccccc4)=Nc4ccccc43)c(=O)[nH]c2=O)c1,,"inconclusive: 2.31 µM [cytotoxic, partial curve, poor fit]"
CC1=CC(=O)OC2CC3OC4C[C@@H](C)C5OC6CC7O[C@]8(C)C/C=C\C9OC%10CC%11OC(CC(C)CO)CC(O)[C@]%11(C)OC%10CC9OC8C[C@]7(C)O[C@]6(C)CCC5OC4C[C@]3(C)OC12 (stereo partly specified),,"inconclusive: 16.4 µM [cytotoxic, single point]"
CC(=NCCc1c[nH]c2ccccc12)c1c(O)n(Cc2ccccc2)c(=O)[nH]c1=O,,active: 11.6 µM
CN1CCCN(C(=O)COc2ccc(Br)cc2)CC1,inactive: -9.99%,
O=[N+]([O-])/C(Cl)=C1\NCCN1Cc1ccc(Cl)nc1,inactive: 0%,
Oc1ccccc1-[n+]1c(-c2ccccc2)cc(-c2ccccc2)c(O)c1-c1ccccc1,inactive: 3.12%,
COc1ccc(NC(=O)[C@@H](NC(=O)N2C[C@H]3C[C@@H](C2)c2cccc(=O)n2C3)C(C)C)cc1,,"inconclusive: 14.6 µM [rising, partial curve, poor fit]"
COc1cccc(-n2c(CN3CCN(C)CC3)nc3ccc([N+](=O)[O-])cc3c2=O)c1,inactive: -1.44%,
O=C1NCN(c2ccccc2)C12CCN(C(c1nnnn1-c1ccc3c(c1)OCCO3)C1CC1)CC2 (stereo unspecified),,"inconclusive: 29.1 µM [cytotoxic, single point]"
CCCCn1nnnc1C(CCc1ccccc1)N1CCC(n2c(=O)[nH]c3ccccc32)CC1 (stereo unspecified),,active: 4.11 µM
Cc1ccc(Oc2cc(NN3CCCCC3)c([N+](=O)[O-])cc2[N+](=O)[O-])c([N+](=O)[O-])c1,inconclusive: 46.8%,
O=[N+]([O-])c1ccc(N2CCCC(C(F)(F)F)C2)c2ccncc12 (stereo unspecified),,"inconclusive: 14.6 µM [cytotoxic, partial curve, poor fit]"
CCOc1ccccc1-n1c(O)c(C=Nc2ccc(N(CC)CC)cc2)c(=O)[nH]c1=O,,"inconclusive: 32.6 µM [cytotoxic, single point]"
O=C(c1ccc(Br)cc1)C12CN3CN(CN(C3)C1)C2,,"inconclusive: 29.1 µM [rising, single point]"
CCC(c1nnnn1Cc1ccccc1)N1CCC(n2c(=O)[nH]c3ccccc32)CC1 (stereo unspecified),,"inconclusive: 18.4 µM [cytotoxic, single point]"
COc1cc(/C=C/c2nc3ccccc3c(=O)n2-c2ccc(Br)c(C)c2)ccc1O,,"inconclusive: 25.9 µM [cytotoxic, single point]"
O=P(/C=C1\OCc2ccccc21)(Oc1ccccc1)Oc1ccccc1,,"inconclusive: 10.3 µM [cytotoxic, partial curve]"
O=C1CC(=O)N(c2ccccc2)C(=O)N1,,"inconclusive: 29.1 µM [rising, single point]"
N[C@@H]1C[C@H]1c1ccccc1,inactive: -2.39%,
C=C(C)[C@@H]1[C@H]2OC(=O)[C@H]1[C@]1(O)C[C@H]3O[C@]34C(=O)O[C@H]2[C@]14C,inactive: 4.26%,

Compound,"activity change, negative = cytotoxicity",Potency
Cc1ccc(S(=O)(=O)N2CC2(C)CCl)cc1 (stereo unspecified),,"inconclusive: 7.31 µM [cytotoxic, partial curve, poor fit]"
O=C(COc1ccccc1F)N1CCN(CCN2C(=O)c3cccc4cccc(c34)C2=O)CC1,,"inconclusive: 6.51 µM [cytotoxic, partial curve]"
CCCCn1c(O)c(C(CC)=NCc2ccco2)c(=O)[nH]c1=O,,active: 20.6 µM
O=P1(Oc2ccccc2)CC=C[C@H](COCc2ccccc2)O1 (stereo partly specified),inactive: -0.901%,
CCOC(=O)CNC(=O)N1Cc2cc(N3CCCCC3)ccc2-n2nncc2C1,inactive: 1.87%,
CNc1cc(Cl)c2nonc2c1[N+](=O)[O-],,"inconclusive: 29.1 µM [cytotoxic, single point]"
N=C(N)c1c(O)n(C2CCCCC2)c(=O)n(C2CCCCC2)c1=O,inactive: -3.59%,
COc1cccc(C(=O)C2CCCN(Cc3ccc4nsnc4c3)C2)c1 (stereo unspecified),,"inconclusive: 10.3 µM [cytotoxic, single point]"
C[C@]12CCC3C(CC[C@@H]4[C@H]5O[C@H]5CC[C@]34C)C1CC[C@@H]2O (stereo partly specified),inactive: -0.164%,
O=S(=O)(c1ccc(Cl)cc1)N1Cc2cc(Br)ccc2-n2nncc2C1,,"inconclusive: 29.1 µM [cytotoxic, single point]"
CC(C)CN(CC(C)C)c1ccc(C=C2C(=O)NC(=S)NC2=O)cc1[N+](=O)[O-],,"inconclusive: 20.6 µM [cytotoxic, partial curve]"
COC(=O)C1=Nc2ccccc2/C1=C\c1c(O)n(-c2cc(OC)ccc2OC)c(=O)[nH]c1=O,,"inconclusive: 10.3 µM [rising, partial curve]"
CCCCc1nc2ccccc2c(=O)n1-c1cccc(OC)c1,inactive: 5.42%,
COc1ccc(-c2nn(Cc3ccccc3)cc2C(=O)NC2CC2)cc1OC,inactive: -1.15%,
Cc1cc(Oc2ccc(C(F)(F)F)cc2[N+](=O)[O-])c2c3c(c(=O)oc2c1)CCCC3,,"inconclusive: 6.51 µM [cytotoxic, partial curve]"
C[C@]1(O)CCC2C3CC[C@@H]4CC(=O)CC[C@]4(C)C3CC[C@@]21C (stereo partly specified),,"inconclusive: 29.1 µM [cytotoxic, single point]"
COc1ccc(C(=O)CN2CCCCC2)cc1,,"inconclusive: 29.1 µM [rising, single point]"
O=P1(Nc2ccc(F)cc2)COc2ccccc2OC1,inactive: -1.32%,
O=C(Cc1ccccc1)OCC(=O)c1ccc(F)cc1,,"inconclusive: 18.4 µM [rising, single point]"
COC(=O)C1=C(c2ccc(F)cc2OCc2ccccc2)C[C@@H]2CC[C@H]1N2C(=O)NCc1ccc(C(F)(F)F)cc1,inactive: -1.74%,
COC(=O)C1=C(c2ccc(C(C)=O)cc2)C[C@@H]2CC[C@H]1N2C(=O)N1CCCCC1,inactive: -8.61%,
O=C1CN=C(c2ccccc2)c2cc(Cl)ccc2N1Cc1ccc(Cl)cc1,,active: 14.6 µM
CCC1(OC(=O)CN)C(=O)OCc2c1cc1n(c2=O)Cc2cc3ccccc3nc2-1 (stereo unspecified),,"inconclusive: 6.51 µM [cytotoxic, partial curve, poor fit]"
Cc1noc(C)c1CC(=O)N1CCCC(N2CCN(c3ccccc3F)CC2)C1 (stereo unspecified),,"inconclusive: 4.61 µM [cytotoxic, full curve]"

# Three compounds already listed, arranged by heavy-atom count, largest number first.
Compound,"activity change, negative = cytotoxicity",Potency
CCC1(OC(=O)CN)C(=O)OCc2c1cc1n(c2=O)Cc2cc3ccccc3nc2-1 (stereo unspecified),,"inconclusive: 6.51 µM [cytotoxic, partial curve, poor fit]"
COC(=O)C1=C(c2ccc(C(C)=O)cc2)C[C@@H]2CC[C@H]1N2C(=O)N1CCCCC1,inactive: -8.61%,
O=C(Cc1ccccc1)OCC(=O)c1ccc(F)cc1,,"inconclusive: 18.4 µM [rising, single point]"

# A few values from the entries so far:
# For activity change, negative = cytotoxicity, COC(=O)C1=C(c2ccc(F)cc2OCc2ccccc2)C[C@@H]2CC[C@H]1N2C(=O)NCc1ccc(C(F)(F)F)cc1 is entered as inactive: -1.74%
# For activity change, negative = cytotoxicity, C[C@]12CCC3C(CC[C@@H]4[C@H]5O[C@H]5CC[C@]34C)C1CC[C@@H]2O (stereo partly specified) is entered as inactive: -0.164%

# The list goes on:

Compound,"activity change, negative = cytotoxicity",Potency
C=C1C(=O)OC2CC(C)C3C=CC(=O)C3(C)C(O)C12 (stereo unspecified),,active: 3.66 µM
Cc1ccsc1C(=O)C1CCCN(Cc2ccc(-n3cccn3)cc2)C1 (stereo unspecified),,"inconclusive: 7.31 µM [cytotoxic, partial curve]"
CCOC(=O)C(O)(c1ccc(NC(=O)Oc2ccccc2)cc1)C(F)(F)F (stereo unspecified),inactive: -29.9%,
O=c1[nH]c(=O)n(Cc2ccc(F)cc2)c(O)c1C=NCCCO,inactive: -2.15%,
O=C(NC(=C(Cl)Cl)P(=O)(c1ccccc1)c1ccccc1)c1ccccc1,,"inconclusive: 18.4 µM [cytotoxic, single point]"
Cn1cc(C(=O)OCC(=O)Nc2ccccc2)c2ccccc21,,active: 20.6 µM
CN1CCN(Cc2cn3cccnc3n2)CC1,,"inconclusive: 2.31 µM [rising, partial curve, poor fit]"
C[C@]12CCC3C(CC[C@H]4C[C@H](O)[C@H](O)C[C@]34C)C1CC[C@@H]2O (stereo partly specified),,"inconclusive: 23.1 µM [rising, single point]"
CCc1ccc(OCC(=O)N2CCN(CCc3ccccn3)CC2)cc1,inactive: -18.4%,
Cc1c(C)c2ccc(OCC(=O)N3CCC(C(=O)O)(c4ccccc4)CC3)c(C)c2oc1=O,,"inconclusive: 13 µM [rising, partial curve, poor fit]"
CCN(CC)c1ccc(C=C2C(=O)NC(=S)NC2=O)cc1,,"inconclusive: 29.1 µM [cytotoxic, single point]"
CN1CCc2cc(O)cc3c2[C@H]1Cc1ccc(O)c(O)c1-3,,inactive
COc1ccc(C(=O)Oc2cccc3cccnc23)cc1S(=O)(=O)N1CCOCC1,inactive: 2.03%,
O=c1[nH]c(O)c(C=NCCc2ccccc2)c(=O)[nH]1,,"inconclusive: 29.1 µM [rising, single point]"
C=CCc1cc(C=C2C(=O)N(C)C(=O)N(C)C2=O)cc(OCC)c1OCc1ccccc1,,active: 16.4 µM
CC[n+]1c(/C=C/N(C)c2ccccc2)sc2ccc(Cl)cc21,,active: 11.6 µM
Cc1cc(N2CCNCC2)nc2ccccc12,inactive: -6.44%,
COC(=O)C1=C(c2ccc(Cl)c(C(F)(F)F)c2)C[C@@H]2CC[C@H]1N2C(=O)NCc1cc(C)oc1C(F)(F)F,,"inconclusive: 18.4 µM [cytotoxic, partial curve]"
COc1ccccc1CCNCc1cccc(C(F)(F)F)c1,,"inconclusive: 4.11 µM [rising, full curve, poor fit]"
CCCOC(=O)c1ccc(-[n+]2c(-c3ccccc3)cc(-c3ccccc3)cc2-c2ccccc2)cc1,inactive: 17.9%,
CC12CCC(O)CC1CCC1C2CCC2(C)C(C3=CC(=O)OC3)CCC12O (stereo unspecified),,active: 0.731 µM
C[N+]1(CC2COC(c3ccco3)O2)CCCCC1 (stereo unspecified),inactive: 2.17%,
CC(=O)C1CCC2C3C(N4CC4)CC4=CC(=O)CCC4(C)C3CCC12C (stereo unspecified),,"inconclusive: 18.4 µM [cytotoxic, single point]"

# From PubChem BioAssay AID1347076 (National Center for Advancing Translational Sciences (NCATS), 2019)
